Assay results from the supplement of paper PMC7666118.
Some of the results follow.

Protein sequences, listed by entry. Tags and fused reporters are not part of them. Lines headed by an entry give the natural chain unless they say otherwise; changes in a name come on top.
UniProt Q5VT25: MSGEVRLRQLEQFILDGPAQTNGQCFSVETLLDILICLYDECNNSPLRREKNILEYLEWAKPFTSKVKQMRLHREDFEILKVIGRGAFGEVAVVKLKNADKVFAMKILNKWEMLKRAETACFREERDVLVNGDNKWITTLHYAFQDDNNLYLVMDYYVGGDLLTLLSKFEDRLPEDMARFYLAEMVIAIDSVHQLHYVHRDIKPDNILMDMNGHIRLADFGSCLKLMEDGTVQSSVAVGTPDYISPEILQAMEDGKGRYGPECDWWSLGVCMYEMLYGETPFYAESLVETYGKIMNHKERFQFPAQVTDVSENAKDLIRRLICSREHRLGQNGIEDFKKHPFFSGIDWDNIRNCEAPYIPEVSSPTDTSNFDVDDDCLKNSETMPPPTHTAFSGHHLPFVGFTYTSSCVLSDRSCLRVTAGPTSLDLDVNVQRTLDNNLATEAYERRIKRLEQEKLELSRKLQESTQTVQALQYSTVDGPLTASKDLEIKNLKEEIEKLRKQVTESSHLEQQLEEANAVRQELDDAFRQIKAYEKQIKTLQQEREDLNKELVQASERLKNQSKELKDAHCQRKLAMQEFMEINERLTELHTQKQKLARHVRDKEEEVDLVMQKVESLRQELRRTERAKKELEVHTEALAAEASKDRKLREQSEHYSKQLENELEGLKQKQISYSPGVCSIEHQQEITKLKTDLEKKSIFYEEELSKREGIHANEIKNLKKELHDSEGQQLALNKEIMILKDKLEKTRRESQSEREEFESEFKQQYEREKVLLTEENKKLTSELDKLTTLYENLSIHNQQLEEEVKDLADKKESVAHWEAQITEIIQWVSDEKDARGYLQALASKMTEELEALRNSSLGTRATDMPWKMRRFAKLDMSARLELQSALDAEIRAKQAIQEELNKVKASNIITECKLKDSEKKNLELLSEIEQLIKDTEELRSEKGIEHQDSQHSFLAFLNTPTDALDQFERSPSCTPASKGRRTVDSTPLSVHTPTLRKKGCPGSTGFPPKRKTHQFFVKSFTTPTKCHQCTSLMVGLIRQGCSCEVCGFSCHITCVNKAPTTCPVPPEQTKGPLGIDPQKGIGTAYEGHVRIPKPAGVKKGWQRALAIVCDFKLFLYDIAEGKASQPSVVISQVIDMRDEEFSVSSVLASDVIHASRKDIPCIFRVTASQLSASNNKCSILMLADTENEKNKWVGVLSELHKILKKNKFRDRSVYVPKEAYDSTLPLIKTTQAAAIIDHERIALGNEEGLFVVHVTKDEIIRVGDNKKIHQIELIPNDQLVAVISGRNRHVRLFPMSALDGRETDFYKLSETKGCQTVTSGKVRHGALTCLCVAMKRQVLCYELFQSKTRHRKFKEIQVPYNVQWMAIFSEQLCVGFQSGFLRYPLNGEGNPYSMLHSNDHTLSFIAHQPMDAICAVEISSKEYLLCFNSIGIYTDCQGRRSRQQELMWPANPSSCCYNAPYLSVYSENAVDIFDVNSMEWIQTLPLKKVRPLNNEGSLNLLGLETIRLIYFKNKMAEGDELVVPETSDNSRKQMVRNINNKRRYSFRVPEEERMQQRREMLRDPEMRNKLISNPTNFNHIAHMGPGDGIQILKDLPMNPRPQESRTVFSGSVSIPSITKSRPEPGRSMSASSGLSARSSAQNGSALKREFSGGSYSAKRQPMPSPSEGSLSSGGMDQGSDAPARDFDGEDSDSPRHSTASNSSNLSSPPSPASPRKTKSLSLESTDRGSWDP
UniProt Q8NFW8: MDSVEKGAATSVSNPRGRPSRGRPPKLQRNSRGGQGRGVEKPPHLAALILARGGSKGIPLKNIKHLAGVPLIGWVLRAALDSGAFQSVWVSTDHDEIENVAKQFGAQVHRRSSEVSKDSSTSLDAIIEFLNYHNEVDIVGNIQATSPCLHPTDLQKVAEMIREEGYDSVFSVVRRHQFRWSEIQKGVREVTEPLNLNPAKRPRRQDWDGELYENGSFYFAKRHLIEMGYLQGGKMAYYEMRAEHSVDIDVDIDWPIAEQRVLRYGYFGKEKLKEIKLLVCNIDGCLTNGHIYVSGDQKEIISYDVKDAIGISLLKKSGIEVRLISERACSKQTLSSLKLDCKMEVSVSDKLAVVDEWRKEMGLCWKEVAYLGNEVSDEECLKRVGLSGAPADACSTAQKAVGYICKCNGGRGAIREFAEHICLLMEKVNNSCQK
UniProt P15954, whole entry: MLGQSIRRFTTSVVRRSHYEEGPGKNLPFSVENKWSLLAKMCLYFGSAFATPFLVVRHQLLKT
UniProt O14578, whole entry: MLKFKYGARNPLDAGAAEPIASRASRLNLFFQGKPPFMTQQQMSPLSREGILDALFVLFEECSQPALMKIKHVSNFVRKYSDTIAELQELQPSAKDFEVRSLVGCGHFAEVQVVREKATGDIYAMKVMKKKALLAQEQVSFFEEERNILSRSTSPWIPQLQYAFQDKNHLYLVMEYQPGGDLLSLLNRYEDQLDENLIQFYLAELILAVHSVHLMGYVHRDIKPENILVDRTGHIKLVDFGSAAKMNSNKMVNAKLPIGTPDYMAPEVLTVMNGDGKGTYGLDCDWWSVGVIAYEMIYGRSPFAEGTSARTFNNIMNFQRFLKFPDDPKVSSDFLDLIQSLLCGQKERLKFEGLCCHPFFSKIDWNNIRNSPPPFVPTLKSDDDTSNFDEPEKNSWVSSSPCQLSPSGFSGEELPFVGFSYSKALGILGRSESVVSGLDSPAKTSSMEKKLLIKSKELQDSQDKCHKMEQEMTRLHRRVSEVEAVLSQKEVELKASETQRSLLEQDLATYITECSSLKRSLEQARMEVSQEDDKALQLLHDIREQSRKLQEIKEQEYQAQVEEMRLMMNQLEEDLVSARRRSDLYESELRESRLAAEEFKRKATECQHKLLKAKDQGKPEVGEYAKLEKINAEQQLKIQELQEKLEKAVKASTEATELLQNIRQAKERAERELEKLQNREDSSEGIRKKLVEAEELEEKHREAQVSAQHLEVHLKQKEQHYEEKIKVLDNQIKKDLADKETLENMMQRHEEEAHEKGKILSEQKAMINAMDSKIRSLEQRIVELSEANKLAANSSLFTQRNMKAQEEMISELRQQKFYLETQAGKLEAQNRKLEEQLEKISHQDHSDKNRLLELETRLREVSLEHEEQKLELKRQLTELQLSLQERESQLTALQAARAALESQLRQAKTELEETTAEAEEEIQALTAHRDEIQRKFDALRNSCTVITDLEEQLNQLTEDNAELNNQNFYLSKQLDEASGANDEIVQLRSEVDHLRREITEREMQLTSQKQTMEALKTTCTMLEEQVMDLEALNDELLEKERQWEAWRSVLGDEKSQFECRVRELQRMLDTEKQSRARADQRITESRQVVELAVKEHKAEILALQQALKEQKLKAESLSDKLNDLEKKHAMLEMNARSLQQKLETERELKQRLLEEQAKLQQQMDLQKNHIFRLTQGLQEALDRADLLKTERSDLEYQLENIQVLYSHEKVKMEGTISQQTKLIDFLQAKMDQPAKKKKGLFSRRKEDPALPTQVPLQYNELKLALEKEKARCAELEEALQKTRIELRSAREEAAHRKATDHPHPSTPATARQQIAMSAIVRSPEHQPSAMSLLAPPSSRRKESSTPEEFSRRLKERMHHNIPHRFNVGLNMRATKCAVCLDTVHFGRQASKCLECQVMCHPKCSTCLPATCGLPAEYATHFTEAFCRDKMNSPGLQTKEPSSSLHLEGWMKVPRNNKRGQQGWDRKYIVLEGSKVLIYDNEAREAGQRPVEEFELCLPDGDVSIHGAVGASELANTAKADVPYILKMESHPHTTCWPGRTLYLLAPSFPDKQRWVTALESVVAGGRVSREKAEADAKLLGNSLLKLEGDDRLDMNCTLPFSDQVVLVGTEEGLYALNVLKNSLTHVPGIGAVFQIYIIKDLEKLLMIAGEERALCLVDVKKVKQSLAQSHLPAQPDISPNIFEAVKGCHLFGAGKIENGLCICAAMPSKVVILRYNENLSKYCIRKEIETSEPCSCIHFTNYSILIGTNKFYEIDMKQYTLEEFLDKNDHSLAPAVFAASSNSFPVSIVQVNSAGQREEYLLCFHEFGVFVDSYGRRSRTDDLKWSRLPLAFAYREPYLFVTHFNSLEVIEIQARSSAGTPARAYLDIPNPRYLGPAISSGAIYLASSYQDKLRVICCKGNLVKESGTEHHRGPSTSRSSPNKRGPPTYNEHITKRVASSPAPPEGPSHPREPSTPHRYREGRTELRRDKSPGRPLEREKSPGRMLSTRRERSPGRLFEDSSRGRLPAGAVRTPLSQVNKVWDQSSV
UniProt Q66GS9: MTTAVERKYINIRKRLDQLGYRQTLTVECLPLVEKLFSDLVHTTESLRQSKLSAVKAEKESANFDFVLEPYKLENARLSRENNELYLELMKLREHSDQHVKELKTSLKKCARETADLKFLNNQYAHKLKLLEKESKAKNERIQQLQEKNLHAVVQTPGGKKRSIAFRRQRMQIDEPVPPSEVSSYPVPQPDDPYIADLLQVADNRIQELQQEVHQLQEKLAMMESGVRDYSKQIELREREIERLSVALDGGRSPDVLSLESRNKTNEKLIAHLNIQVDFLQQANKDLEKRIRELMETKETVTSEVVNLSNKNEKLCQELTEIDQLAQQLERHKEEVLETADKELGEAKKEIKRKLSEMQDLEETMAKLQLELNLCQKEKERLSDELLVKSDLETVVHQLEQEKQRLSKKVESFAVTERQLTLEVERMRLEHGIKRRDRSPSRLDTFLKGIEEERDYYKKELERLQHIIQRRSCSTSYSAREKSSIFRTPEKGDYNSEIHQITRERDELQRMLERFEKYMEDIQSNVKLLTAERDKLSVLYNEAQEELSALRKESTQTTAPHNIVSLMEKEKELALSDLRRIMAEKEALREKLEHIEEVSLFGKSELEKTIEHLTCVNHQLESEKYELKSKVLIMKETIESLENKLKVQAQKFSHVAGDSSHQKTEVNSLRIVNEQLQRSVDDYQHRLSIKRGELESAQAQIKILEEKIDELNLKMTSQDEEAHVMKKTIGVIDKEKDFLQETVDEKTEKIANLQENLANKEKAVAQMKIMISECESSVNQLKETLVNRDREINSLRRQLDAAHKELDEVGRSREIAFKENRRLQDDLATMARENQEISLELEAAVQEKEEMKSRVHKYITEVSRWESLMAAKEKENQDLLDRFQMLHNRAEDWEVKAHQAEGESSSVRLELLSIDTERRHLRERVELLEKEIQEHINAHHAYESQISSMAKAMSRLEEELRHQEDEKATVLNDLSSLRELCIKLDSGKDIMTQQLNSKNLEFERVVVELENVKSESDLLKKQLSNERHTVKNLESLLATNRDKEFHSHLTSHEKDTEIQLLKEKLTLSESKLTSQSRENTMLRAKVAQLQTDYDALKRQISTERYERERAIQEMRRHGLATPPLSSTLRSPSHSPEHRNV
UniProt O75419: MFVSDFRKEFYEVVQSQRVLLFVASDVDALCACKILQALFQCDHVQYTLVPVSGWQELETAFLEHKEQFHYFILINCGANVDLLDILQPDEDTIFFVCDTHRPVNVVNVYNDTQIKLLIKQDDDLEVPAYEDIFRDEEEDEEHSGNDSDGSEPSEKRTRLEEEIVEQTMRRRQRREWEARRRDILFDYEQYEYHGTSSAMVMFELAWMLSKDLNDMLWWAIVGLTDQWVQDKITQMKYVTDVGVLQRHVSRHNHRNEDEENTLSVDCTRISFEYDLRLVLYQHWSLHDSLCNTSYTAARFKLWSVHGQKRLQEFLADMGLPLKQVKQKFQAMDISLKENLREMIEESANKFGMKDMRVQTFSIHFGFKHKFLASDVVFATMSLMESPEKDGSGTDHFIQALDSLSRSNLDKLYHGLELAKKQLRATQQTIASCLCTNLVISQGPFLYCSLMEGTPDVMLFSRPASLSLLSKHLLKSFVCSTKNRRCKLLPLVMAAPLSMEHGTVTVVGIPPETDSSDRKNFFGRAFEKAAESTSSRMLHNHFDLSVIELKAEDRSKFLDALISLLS
UniProt Q7L2Z9: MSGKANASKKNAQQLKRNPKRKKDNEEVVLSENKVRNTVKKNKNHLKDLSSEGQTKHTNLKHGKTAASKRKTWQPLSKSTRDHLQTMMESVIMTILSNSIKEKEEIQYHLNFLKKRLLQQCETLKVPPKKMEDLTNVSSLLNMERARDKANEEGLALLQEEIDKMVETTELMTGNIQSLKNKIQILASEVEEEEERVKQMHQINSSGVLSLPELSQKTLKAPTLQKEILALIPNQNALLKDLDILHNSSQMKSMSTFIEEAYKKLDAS
UniProt O76071: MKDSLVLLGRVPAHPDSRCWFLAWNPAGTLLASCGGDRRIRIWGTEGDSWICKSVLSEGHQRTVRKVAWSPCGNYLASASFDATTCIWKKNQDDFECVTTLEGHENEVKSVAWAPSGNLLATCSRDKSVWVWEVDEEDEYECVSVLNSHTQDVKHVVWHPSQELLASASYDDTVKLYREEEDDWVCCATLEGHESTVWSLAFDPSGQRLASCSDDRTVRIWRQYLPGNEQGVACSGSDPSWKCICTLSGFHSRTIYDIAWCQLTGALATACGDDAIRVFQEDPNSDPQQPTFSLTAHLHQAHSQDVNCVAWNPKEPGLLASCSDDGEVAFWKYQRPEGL

compound: COc1ccc(Cn2ccc3cc(C)c(C(=O)NO)cc32)cc1; experiment: dose-dependent thermal stabilisation call (2D-TPP, DLPTP, 10% FDR) (binary (1 = stabilised)); higher = stabilised by the compound; settings: system: HL-60 intact cells; concentration range 0.04-10 µM
Experimental: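 2D thermal proteome profiling in intact HL-60 cells treated with BRD-3811 (0, 0.04, 0.29, 2, 10 uM) for 90 min at 37 C, then heated 3 min at one of 12 temperatures (42-63.9 C). Soluble protein was quantified by TMT10 MS. The value is the DLPTP call of the paper: dose-dependent thermal stabilisation over all temperatures at 10% FDR (F-test of a dose-response against a flat model); one experiment, one call per tested protein.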

| Target | dose-dependent thermal stabilisation call |
| --- | --- |
| CDC27 (UniProt P30260) | inactive: 0 |
| CEBPB (UniProt P17676) | inactive: 0 |
| CEP250 (UniProt Q9BV73) | inactive: 0 |
| CHAF1B (UniProt Q13112) | inactive: 0 |
| CRCP (UniProt O75575) | inactive: 0 |
| CDC42BPA (UniProt Q5VT25) | inactive: 0 |
| CREG1 (UniProt O75629) | inactive: 0 |
| CNOT2 (UniProt Q9NZN8) | inactive: 0 |
| CMAS (UniProt Q8NFW8) | inactive: 0 |
| COX6A1 (UniProt P12074) | inactive: 0 |
| CLASP2 (UniProt O75122) | inactive: 0 |
| COX7C (UniProt P15954) | inactive: 0 |
| CD82 (UniProt P27701) | inactive: 0 |
| CDK5RAP1 (UniProt Q96SZ6) | inactive: 0 |
| CRYL1 (UniProt Q9Y2S2) | inactive: 0 |
| CISD1 (UniProt Q9NZ45) | inactive: 0 |
| CRYZ (UniProt Q08257) | inactive: 0 |
| COX4NB (UniProt O43402) | inactive: 0 |

Another view of part of the listing above:
Target | dose-dependent thermal stabilisation call
CDC27 (UniProt P30260) | inactive: 0
CEBPB (UniProt P17676) | inactive: 0

Carrying on:

| Target | dose-dependent thermal stabilisation call |
| --- | --- |
| CDC2L1 (UniProt P21127) | inactive: 0 |
| CDV3 (UniProt Q9UKY7) | inactive: 0 |
| CHMP4A (UniProt Q9BY43) | inactive: 0 |
| CIT (UniProt O14578) | inactive: 0 |
| CEP135 (UniProt Q66GS9) | inactive: 0 |
| CENPC1 (UniProt Q03188) | inactive: 0 |
| CHMP1A (UniProt Q9HD42) | inactive: 0 |
| CNOT1 (UniProt A5YKK6) | inactive: 0 |
| CHTF18 (UniProt Q8WVB6) | inactive: 0 |
| CRTAP (UniProt O75718) | inactive: 0 |
| CRK (UniProt P46108) | inactive: 0 |
| CDC45L (UniProt O75419) | inactive: 0 |
| CENPQ (UniProt Q7L2Z9) | inactive: 0 |
| COIL (UniProt P38432) | inactive: 0 |
| CIAO1 (UniProt O76071) | inactive: 0 |
| COX4I1 (UniProt P13073) | inactive: 0 |
| COMMD5 (UniProt Q9GZQ3) | inactive: 0 |
| CRELD1 (UniProt Q96HD1) | inactive: 0 |
